No constants are given. Whether binding was seen depends on the method and setting. Some results given as binding are weak or reduced against the parent protein; the word gives no strength.
Target: Drosophila melanogaster Noppera-bo (DmNobo), wild type (D. melanogaster) (UniProt Q7JYX0)
Assay: crystal structure; DmNobo crystallised at 20 °C; DmNobo I crystals from 27.5% (w/v) PEG 3350, 100 mM MES-NaOH pH 5.4; DmNobo II crystals from 42.5% (v/v) PPG400, 100 mM Bis-Tris pH 6.4; apo form and soaks with EST and/or GSH; molecular replacement; both purified

- binding: binds
B1: Drosophila melanogaster Noppera-bo (DmNobo), wild type (enzyme, UniProt Q7JYX0 1-232)
chain: MNHKVMSQPKPILYYDERSPPVRSCLMLIKLLDIDVELRFVNLFKGEQFQKDFLALNPQHSVPTLVHGDLVLTDSHAILIHLAEKFDEGGSLWPQEHAERMKVLNLLLFECSFLFRRDSDFMSATVRQGFANVDVAHHERKLTEAYIIMERYLENSDFMAGPQLTLADLSIVTTLSTVNLMFPLSQFPRLRRWFTAMQQLDAYEANCSGLEKLRQTMESVGSFQFPSSSAVVTEKVE

— paper PMC7242711, “An integrated approach to unravel a crucial structural property required for the function of the insect steroidogenic Halloween protein Noppera-bo” (The Journal of Biological Chemistry, 2020)
